Reference: PMC11650987

Tests used:
[1] = biological target: FLAG-tagged HBx (hepatitis B virus); experiment: co-IP; lysates of transfected cells 48 h after transfection; FLAG-tagged HBx captured on anti-FLAG magnetic beads; Western blot of co-precipitated proteins
[2] = biological target: HBx, in vitro translated (hepatitis B virus); experiment: co-IP; HBx and VCPIP1 translated in vitro (TnT T7 Quick Coupled system); binding analysed as in the lysate co-IP

Binder	binding [1]	binding [2]
valosin-containing protein-interacting protein 1 (VCPIP1), endogenous (enzyme, UniProt Q96JH7 1-1222) MSQPPPPPPPLPPPPPPPEAPQTPSSLASAAASGGLLKRRDRRILSGSCPDPKCQARLFFPASGSVSIECTECGQRHEQQQLLGVEEVTDPDVVLHNLLRNALLGVTGAPKKNTELVKVMGLSNYHCKLLSPILARYGMDKQTGRAKLLRDMNQGELFDCALLGDRAFLIEPEHVNTVGYGKDRSGSLLYLHDTLEDIKRANKSQECLIPVHVDGDGHCLVHAVSRALVGRELFWHALRENLKQHFQQHLARYQALFHDFIDAAEWEDIINECDPLFVPPEGVPLGLRNIHIFGLANVLHRPIILLDSLSGMRSSGDYSATFLPGLIPAEKCTGKDGHLNKPICIAWSSSGRNHYIPLVGIKGAALPKLPMNLLPKAWGVPQDLIKKYIKLEEDGGCVIGGDRSLQDKYLLRLVAAMEEVFMDKHGIHPSLVADVHQYFYRRTGVIGVQPEEVTAAAKKAVMDNRLHKCLLCGALSELHVPPEWLAPGGKLYNLAKSTHGQLRTDKNYSFPLNNLVCSYDSVKDVLVPDYGMSNLTACNWCHGTSVRKVRGDGSIVYLDGDRTNSRSTGGKCGCGFKHFWDGKEYDNLPEAFPITLEWGGRVVRETVYWFQYESDSSLNSNVYDVAMKLVTKHFPGEFGSEILVQKVVHTILHQTAKKNPDDYTPVNIDGAHAQRVGDVQGQESESQLPTKIILTGQKTKTLHKEELNMSKTERTIQQNITEQASVMQKRKTEKLKQEQKGQPRTVSPSTIRDGPSSAPATPTKAPYSPTTSKEKKIRITTNDGRQSMVTLKSSTTFFELQESIAREFNIPPYLQCIRYGFPPKELMPPQAGMEKEPVPLQHGDRITIEILKSKAEGGQSAAAHSAHTVKQEDIAVTGKLSSKELQEQAEKEMYSLCLLATLMGEDVWSYAKGLPHMFQQGGVFYSIMKKTMGMADGKHCTFPHLPGKTFVYNASEDRLELCVDAAGHFPIGPDVEDLVKEAVSQVRAEATTRSRESSPSHGLLKLGSGGVVKKKSEQLHNVTAFQGKGHSLGTASGNPHLDPRARETSVVRKHNTGTDFSNSSTKTEPSVFTASSSNSELIRIAPGVVTMRDGRQLDPDLVEAQRKKLQEMVSSIQASMDRHLRDQSTEQSPSDLPQRKTEVVSSSAKSGSLQTGLPESFPLTGGTENLNTETTDGCVADALGAAFATRSKAQRGNSVEELEEMDSQDAEMTNTTEPMDHS	binds	
HA-VCPIP1 (enzyme, UniProt Q96JH7 1-1222) MSQPPPPPPPLPPPPPPPEAPQTPSSLASAAASGGLLKRRDRRILSGSCPDPKCQARLFFPASGSVSIECTECGQRHEQQQLLGVEEVTDPDVVLHNLLRNALLGVTGAPKKNTELVKVMGLSNYHCKLLSPILARYGMDKQTGRAKLLRDMNQGELFDCALLGDRAFLIEPEHVNTVGYGKDRSGSLLYLHDTLEDIKRANKSQECLIPVHVDGDGHCLVHAVSRALVGRELFWHALRENLKQHFQQHLARYQALFHDFIDAAEWEDIINECDPLFVPPEGVPLGLRNIHIFGLANVLHRPIILLDSLSGMRSSGDYSATFLPGLIPAEKCTGKDGHLNKPICIAWSSSGRNHYIPLVGIKGAALPKLPMNLLPKAWGVPQDLIKKYIKLEEDGGCVIGGDRSLQDKYLLRLVAAMEEVFMDKHGIHPSLVADVHQYFYRRTGVIGVQPEEVTAAAKKAVMDNRLHKCLLCGALSELHVPPEWLAPGGKLYNLAKSTHGQLRTDKNYSFPLNNLVCSYDSVKDVLVPDYGMSNLTACNWCHGTSVRKVRGDGSIVYLDGDRTNSRSTGGKCGCGFKHFWDGKEYDNLPEAFPITLEWGGRVVRETVYWFQYESDSSLNSNVYDVAMKLVTKHFPGEFGSEILVQKVVHTILHQTAKKNPDDYTPVNIDGAHAQRVGDVQGQESESQLPTKIILTGQKTKTLHKEELNMSKTERTIQQNITEQASVMQKRKTEKLKQEQKGQPRTVSPSTIRDGPSSAPATPTKAPYSPTTSKEKKIRITTNDGRQSMVTLKSSTTFFELQESIAREFNIPPYLQCIRYGFPPKELMPPQAGMEKEPVPLQHGDRITIEILKSKAEGGQSAAAHSAHTVKQEDIAVTGKLSSKELQEQAEKEMYSLCLLATLMGEDVWSYAKGLPHMFQQGGVFYSIMKKTMGMADGKHCTFPHLPGKTFVYNASEDRLELCVDAAGHFPIGPDVEDLVKEAVSQVRAEATTRSRESSPSHGLLKLGSGGVVKKKSEQLHNVTAFQGKGHSLGTASGNPHLDPRARETSVVRKHNTGTDFSNSSTKTEPSVFTASSSNSELIRIAPGVVTMRDGRQLDPDLVEAQRKKLQEMVSSIQASMDRHLRDQSTEQSPSDLPQRKTEVVSSSAKSGSLQTGLPESFPLTGGTENLNTETTDGCVADALGAAFATRSKAQRGNSVEELEEMDSQDAEMTNTTEPMDHS	binds	
VCPIP1, in vitro translated (enzyme, UniProt Q96JH7 1-1222) MSQPPPPPPPLPPPPPPPEAPQTPSSLASAAASGGLLKRRDRRILSGSCPDPKCQARLFFPASGSVSIECTECGQRHEQQQLLGVEEVTDPDVVLHNLLRNALLGVTGAPKKNTELVKVMGLSNYHCKLLSPILARYGMDKQTGRAKLLRDMNQGELFDCALLGDRAFLIEPEHVNTVGYGKDRSGSLLYLHDTLEDIKRANKSQECLIPVHVDGDGHCLVHAVSRALVGRELFWHALRENLKQHFQQHLARYQALFHDFIDAAEWEDIINECDPLFVPPEGVPLGLRNIHIFGLANVLHRPIILLDSLSGMRSSGDYSATFLPGLIPAEKCTGKDGHLNKPICIAWSSSGRNHYIPLVGIKGAALPKLPMNLLPKAWGVPQDLIKKYIKLEEDGGCVIGGDRSLQDKYLLRLVAAMEEVFMDKHGIHPSLVADVHQYFYRRTGVIGVQPEEVTAAAKKAVMDNRLHKCLLCGALSELHVPPEWLAPGGKLYNLAKSTHGQLRTDKNYSFPLNNLVCSYDSVKDVLVPDYGMSNLTACNWCHGTSVRKVRGDGSIVYLDGDRTNSRSTGGKCGCGFKHFWDGKEYDNLPEAFPITLEWGGRVVRETVYWFQYESDSSLNSNVYDVAMKLVTKHFPGEFGSEILVQKVVHTILHQTAKKNPDDYTPVNIDGAHAQRVGDVQGQESESQLPTKIILTGQKTKTLHKEELNMSKTERTIQQNITEQASVMQKRKTEKLKQEQKGQPRTVSPSTIRDGPSSAPATPTKAPYSPTTSKEKKIRITTNDGRQSMVTLKSSTTFFELQESIAREFNIPPYLQCIRYGFPPKELMPPQAGMEKEPVPLQHGDRITIEILKSKAEGGQSAAAHSAHTVKQEDIAVTGKLSSKELQEQAEKEMYSLCLLATLMGEDVWSYAKGLPHMFQQGGVFYSIMKKTMGMADGKHCTFPHLPGKTFVYNASEDRLELCVDAAGHFPIGPDVEDLVKEAVSQVRAEATTRSRESSPSHGLLKLGSGGVVKKKSEQLHNVTAFQGKGHSLGTASGNPHLDPRARETSVVRKHNTGTDFSNSSTKTEPSVFTASSSNSELIRIAPGVVTMRDGRQLDPDLVEAQRKKLQEMVSSIQASMDRHLRDQSTEQSPSDLPQRKTEVVSSSAKSGSLQTGLPESFPLTGGTENLNTETTDGCVADALGAAFATRSKAQRGNSVEELEEMDSQDAEMTNTTEPMDHS		binds

These are yes or no findings as the source states them, for the method shown. Binding seen in cells or lysates may run through a third protein. Binding can be weak; no strength is given. For part of these data: Tags and fused reporters may be left off the sequences shown.
